From publication PMC11895297
These are yes or no findings as the source states them, for the method shown. In cells and extracts the contact can be indirect. Some binding calls cover weakened binding; strength is not graded here. For part of these data: Tags and fused reporters may be left off the sequences shown.

By UniProt entry, the sequences of proteins in these tests, tags left out.
UniProt O14980: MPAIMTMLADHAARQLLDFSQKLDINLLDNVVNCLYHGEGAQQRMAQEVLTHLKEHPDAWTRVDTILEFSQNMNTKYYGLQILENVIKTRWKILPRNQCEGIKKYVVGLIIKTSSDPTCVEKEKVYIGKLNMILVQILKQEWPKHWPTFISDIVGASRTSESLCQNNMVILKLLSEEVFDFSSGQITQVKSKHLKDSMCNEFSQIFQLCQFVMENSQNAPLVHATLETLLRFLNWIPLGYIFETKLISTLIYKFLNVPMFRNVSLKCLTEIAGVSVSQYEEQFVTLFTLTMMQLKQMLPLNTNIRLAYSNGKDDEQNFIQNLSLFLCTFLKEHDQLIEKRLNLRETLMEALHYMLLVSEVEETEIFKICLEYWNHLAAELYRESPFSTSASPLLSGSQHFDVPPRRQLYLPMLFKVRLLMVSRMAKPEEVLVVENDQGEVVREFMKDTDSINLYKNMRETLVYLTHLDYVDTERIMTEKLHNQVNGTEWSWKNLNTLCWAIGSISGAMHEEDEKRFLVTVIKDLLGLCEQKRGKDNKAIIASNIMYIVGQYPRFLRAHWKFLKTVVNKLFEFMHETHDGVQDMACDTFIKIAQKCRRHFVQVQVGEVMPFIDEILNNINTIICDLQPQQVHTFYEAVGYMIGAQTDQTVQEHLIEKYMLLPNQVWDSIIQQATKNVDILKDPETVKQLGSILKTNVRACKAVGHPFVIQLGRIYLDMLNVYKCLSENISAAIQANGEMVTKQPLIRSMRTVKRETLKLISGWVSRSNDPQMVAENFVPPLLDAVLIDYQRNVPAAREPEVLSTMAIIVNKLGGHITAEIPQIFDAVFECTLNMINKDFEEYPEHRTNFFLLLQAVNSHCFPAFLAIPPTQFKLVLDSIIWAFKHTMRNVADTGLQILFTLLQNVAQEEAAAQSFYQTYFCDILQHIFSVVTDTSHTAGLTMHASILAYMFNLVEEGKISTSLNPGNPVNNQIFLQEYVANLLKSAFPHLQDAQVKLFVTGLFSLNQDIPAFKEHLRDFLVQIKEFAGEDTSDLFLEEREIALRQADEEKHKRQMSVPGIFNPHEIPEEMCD

Assays:
[1] = target: T1, PPARα-Flag (wild type construct) (UniProt Q07869); experiment: co-IP; HepG2 cells transfected with RAN-HA or PPARα-Flag constructs, 1 mg protein immunoprecipitated with Flag/HA-beads overnight, western blot
T1 sequence: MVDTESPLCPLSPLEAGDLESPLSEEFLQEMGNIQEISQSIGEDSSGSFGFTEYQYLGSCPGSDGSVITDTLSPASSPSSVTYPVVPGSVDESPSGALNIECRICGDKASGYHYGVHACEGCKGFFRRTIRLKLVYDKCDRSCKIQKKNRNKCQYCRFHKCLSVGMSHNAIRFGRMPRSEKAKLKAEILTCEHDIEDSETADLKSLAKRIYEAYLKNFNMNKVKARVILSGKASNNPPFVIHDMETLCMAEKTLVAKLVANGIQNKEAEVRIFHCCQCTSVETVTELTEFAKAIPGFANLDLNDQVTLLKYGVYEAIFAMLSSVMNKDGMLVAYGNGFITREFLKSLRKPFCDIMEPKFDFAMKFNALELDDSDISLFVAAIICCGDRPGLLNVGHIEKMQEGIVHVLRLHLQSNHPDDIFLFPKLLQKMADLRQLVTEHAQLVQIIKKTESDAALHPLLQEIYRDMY

[2] = target: T2, Peroxisome proliferator-activated receptor α (endogenous) (human (endogenous in hepatoma cell lines)) (UniProt Q07869); experiment: co-IP; endogenous proteins in hepatoma cell lysates, IgG or specific antibodies overnight, protein G beads, western blot; also in SNU-449 with CRSP8 knockdown and MHCC97H with CRSP8 overexpression
T2 sequence: T1 sequence

Flag-GFP-PPARα = target: T3, Flag-GFP-PPARα (UniProt Q07869); experiment: co-IP; HEK293T cells overexpressing HA-GFP-RAN, Flag-GFP-PPARα and GFP-CRM1, with or without stable CRSP8 knockdown, western blot
T3 sequence: T1 sequence

binding [1] | binding [2] | binding (Flag-GFP-PPARα) | Substance
binds | binds | – | Chromosome maintenance region 1 (endogenous) (from UniProt O14980 1-1071)
– | – | binds | GFP-CRM1 (from UniProt O14980 1-1071)
